{"sequences": {"note": "Sequences of proteins named here, by UniProt entry; tags and fusion partners are left off. Residues count along the entry.", "UniProt Q9WU72, residues 127-309": "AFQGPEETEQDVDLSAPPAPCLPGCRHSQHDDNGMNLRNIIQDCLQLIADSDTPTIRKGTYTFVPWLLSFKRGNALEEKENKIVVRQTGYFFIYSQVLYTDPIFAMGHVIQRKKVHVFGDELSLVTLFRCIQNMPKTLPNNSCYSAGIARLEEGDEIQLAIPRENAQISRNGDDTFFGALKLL"}, "source": "patent US20040072188A1", "about": "(Biogen, published 2004)", "molecular_target": "T1, human BAFF-R (JST576), full length, on cells (human) (UniProt Q96RJ3)", "T1 sequence": "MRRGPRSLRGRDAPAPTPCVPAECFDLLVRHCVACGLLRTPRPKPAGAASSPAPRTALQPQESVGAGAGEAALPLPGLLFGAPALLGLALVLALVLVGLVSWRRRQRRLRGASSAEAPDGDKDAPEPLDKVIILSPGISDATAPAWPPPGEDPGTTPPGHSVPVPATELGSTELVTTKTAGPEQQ", "assay": "FACS on 293EBNA cells co-transfected with pJST576 and GFP, 5 ug/ml, anti-flag M2, anti-mouse IgG-PE", "note": "These are yes or no findings as the source states them, for the method shown. Some results given as binding are weak or reduced against the parent protein; the word gives no strength.", "data": [{"substance": "recombinant soluble murine flag-BAFF (from UniProt Q9WU72 127-309) (ligand)", "values": [{"measurement": "binding", "result": "binds"}]}]}
